Data source: PubChem BioAssay AID602203 (INSERM, 2012)
Here is an unselected part of 999 reagents tested. In the full data, 85 (8.5%) are marked active. 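Unclear how single-siRNA scores of -1, 0 or +1 give the printed -4 to 4 range; calls lie near -3 or 3 and beyond.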 The record does not give: the amount of reagent, the time to read-out, the dose of the treatment.

Aim: 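Follow-up of knock-downs that sensitize or protect A549 cells against cisplatin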 (follow-up of hits)
Cell system: human A549 lung cancer cells
Reagents: siRNA pair against human genes
Conditions: cisplatin at a dose killing half of control-siRNA cells, given 48 h after transfection
Measurement: 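Cisplatin at a dose killing 50% of control cells, 48 h post-transfection; each siRNA +1 protective, -1 sensitizing, 0 if toxic (LDH) or antiproliferative (WST-1); per-gene sum and mean death change versus control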
Scale: summed siRNA score for cisplatin death: higher = more siRNAs reduced cisplatin-induced cell death; change in cisplatin death versus control: higher = fewer cells died than in control
Hit rule: In these data the active calls have summed siRNA score for cisplatin death at about -3 or lower, or at about 3 or higher

gene knocked down,summed siRNA score for cisplatin death,change in cisplatin death versus control (percentage points),call
LOC389786,1,,inactive
DHRS11 (dehydrogenase/reductase 11),0,,inactive
GPR52 (G protein-coupled receptor 52),-1,,inactive
CDC20 (cell division cycle 20),1,,inactive
DYRK2 (dual specificity tyrosine phosphorylation regulated kinase 2),1,,inactive
ADA (adenosine deaminase),-2,,inactive
CHP1 (calcineurin like EF-hand protein 1),1,,inactive
OSTN (osteocrin),-2,,inactive
"RAB3C (RAB3C, member RAS oncogene family)",-3,-8.4,active
LOC442001,-2,,inactive
FOXD2 (forkhead box D2),1,,inactive
LATS1 (large tumor suppressor kinase 1),0,,inactive
LOC441756,2,,inactive
IL1R2 (interleukin 1 receptor type 2),1,,inactive
LAMB4 (laminin subunit beta 4),1,,inactive
HNRNPH1 (heterogeneous nuclear ribonucleoprotein H1),1,,inactive
LOC441992,-1,,inactive
GGT7 (gamma-glutamyltransferase 7),1,,inactive
TTC4 (tetratricopeptide repeat domain 4),-1,,inactive
H2AC21 (H2A clustered histone 21),0,,inactive
KCNE4,-1,,inactive
LOC389264,1,,inactive
"PLOD3 (procollagen-lysine,2-oxoglutarate 5-dioxygenase 3)",-1,,inactive
TMPRSS11F (transmembrane serine protease 11F),1,,inactive
FAM240C (family with sequence similarity 240 member C),0,,inactive
GALNT1 (polypeptide N-acetylgalactosaminyltransferase 1),0,,inactive
LOC89231,-1,,inactive
DHDDS (dehydrodolichyl diphosphate synthase subunit),0,,inactive
STX12 (syntaxin 12),2,,inactive
PLCH1 (phospholipase C eta 1),-1,,inactive
AR (androgen receptor),-2,,inactive
TPM3 (tropomyosin 3),1,,inactive
LOC440155,1,,inactive
TRIM42 (tripartite motif containing 42),0,,inactive
LINC02875 (long independently transcribed non-coding RNA 2875),1,,inactive
IL10RA (interleukin 10 receptor subunit alpha),-1,,inactive
UNKL (unk like zinc finger),1,,inactive
TFF1 (trefoil factor 1),-3,-14,active
UTRN (utrophin),1,,inactive
LOC388284,0,,inactive
ABCA1 (ATP binding cassette subfamily A member 1),-1,,inactive
AKAP8 (A-kinase anchoring protein 8),0,,inactive
RPE65 (retinoid isomerohydrolase RPE65),-2,,inactive
SLC9A4,0,,inactive
LOC441900,-1,,inactive
WNT6 (Wnt family member 6),-1,,inactive
MLXIPL (MLX interacting protein like),2,,inactive
MARCKSL1 (MARCKS like 1),0,,inactive
BRPF3 (bromodomain and PHD finger containing 3),0,,inactive
SLC37A4,-2,,inactive
LOC387941,0,,inactive
CRLF3 (cytokine receptor like factor 3),0,,inactive
ETV1 (ETS variant transcription factor 1),0,,inactive
LOC387880,-1,,inactive
CMYA5 (cardiomyopathy associated 5),2,,inactive
"ALG11 (ALG11 alpha-1,2-mannosyltransferase)",0,,inactive
LOC441721,2,,inactive
GP1BB (glycoprotein Ib platelet subunit beta),1,,inactive
HEMK1,-1,,inactive
HSFY2 (heat shock transcription factor Y-linked 2),-1,,inactive
ASCL2 (achaete-scute family bHLH transcription factor 2),1,,inactive
LOC390564,1,,inactive
LSR (lipolysis stimulated lipoprotein receptor),0,,inactive
SPHK1 (sphingosine kinase 1),0,,inactive
PHF6 (PHD finger protein 6),1,,inactive
CRHR1 (corticotropin releasing hormone receptor 1),-2,,inactive
LOC440035,1,,inactive
MX1 (MX dynamin like GTPase 1),-1,,inactive

Not a retest: an excerpt of the list.
gene knocked down,summed siRNA score for cisplatin death,change in cisplatin death versus control (percentage points),call
ABCA1 (ATP binding cassette subfamily A member 1),-1,,inactive
AKAP8 (A-kinase anchoring protein 8),0,,inactive
RPE65 (retinoid isomerohydrolase RPE65),-2,,inactive
SLC9A4,0,,inactive
LOC441900,-1,,inactive
WNT6 (Wnt family member 6),-1,,inactive
MLXIPL (MLX interacting protein like),2,,inactive
MARCKSL1 (MARCKS like 1),0,,inactive
BRPF3 (bromodomain and PHD finger containing 3),0,,inactive
SLC37A4,-2,,inactive
LOC387941,0,,inactive
CRLF3 (cytokine receptor like factor 3),0,,inactive
ETV1 (ETS variant transcription factor 1),0,,inactive
LOC387880,-1,,inactive
CMYA5 (cardiomyopathy associated 5),2,,inactive
"ALG11 (ALG11 alpha-1,2-mannosyltransferase)",0,,inactive

More entries follow.
gene knocked down,summed siRNA score for cisplatin death,change in cisplatin death versus control (percentage points),call
RIPK4 (receptor interacting serine/threonine kinase 4),0,,inactive
LOC388122,-1,,inactive
RXFP2 (relaxin family peptide receptor 2),0,,inactive
HSDL2 (hydroxysteroid dehydrogenase like 2),1,,inactive
GRB2 (growth factor receptor bound protein 2),-1,,inactive
GATAD1 (GATA zinc finger domain containing 1),-1,,inactive
RIOX1 (ribosomal oxygenase 1),0,,inactive
IKBIP (IKBKB interacting protein),-2,,inactive
IFT57 (intraflagellar transport 57),0,,inactive
SLC6A5,0,,inactive
SLC7A11,0,,inactive
"LAMTOR3 (late endosomal/lysosomal adaptor, MAPK and MTOR activator 3)",1,,inactive
OR2D2 (olfactory receptor family 2 subfamily D member 2),0,,inactive
TRHDE (thyrotropin releasing hormone degrading enzyme),0,,inactive
LOC442606,-1,,inactive
"HLA-DPA1 (major histocompatibility complex, class II, DP alpha 1)",0,,inactive
TARP (TCR gamma alternate reading frame protein),1,,inactive
CACNA1H (calcium voltage-gated channel subunit alpha1 H),-1,,inactive
OLR1 (oxidized low density lipoprotein receptor 1),-1,,inactive
LOC203510,-1,,inactive
ATRNL1 (attractin like 1),-1,,inactive
"PALS2 (protein associated with LIN7 2, MAGUK p55 family member)",3,13.5,active
BSN (bassoon presynaptic cytomatrix protein),-3,-7.4,active
LINC00921 (long independently transcribed non-coding RNA 921),1,,inactive
MARVELD3 (MARVEL domain containing 3),-1,,inactive
KRT27 (keratin 27),2,,inactive
GLA (galactosidase alpha),-2,,inactive
CXCL13 (C-X-C motif chemokine ligand 13),0,,inactive
FOXN2 (forkhead box N2),0,,inactive
GINS3 (GINS complex subunit 3),-2,,inactive
ADAR (adenosine deaminase RNA specific),-3,-9.46,active
LOC440986,0,,inactive
SLC67A1-AS (SLC67A1 antisense RNA),3,8.69,active
MMP9 (matrix metallopeptidase 9),-1,,inactive
BACH2 (BACH transcriptional regulator 2),-1,,inactive
MMP16 (matrix metallopeptidase 16),0,,inactive
ARHGAP35 (Rho GTPase activating protein 35),3,11.6,active
LOC441968,0,,inactive
PNMT (phenylethanolamine N-methyltransferase),-2,,inactive
